PubChem BioAssay AID1671195, Yale University – 2021
Here is one part, drawn at random, of about 22,000 deposited reagents. About 1,510 of them (6.9%) were called active. 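Active includes knockdowns raising or lowering LDL uptake; positive z-scores mean more uptake, negative mean less.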 Reagent sequences are not shown.

Screen: 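Genes whose knockdown alters LDL uptake in liver cancer cells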 (primary screen)
Cells: human Huh7 hepatoma cells
Reagent: siRNA pool against human genes, 18 nM
Timing: about 2 to 2.5 days of knockdown, then 8 h LDL uptake
Conditions: DiI-labelled LDL at 30 µg/ml for 8 h, in lipoprotein-deficient serum medium
Measurement: 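Fluorescent LDL signal imaged in cells, scaled to the plate median, robust z-score for each replicate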
Scale: robust z-score: higher = more LDL uptake after knockdown
Active means: 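a gene counts as active if at least two replicate z-scores exceed ±2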

target | robust z-score, replicate 1 | robust z-score, replicate 2 | robust z-score, replicate 3 | Call
COIL | -1.67 | -0.453 | 0.522 | inactive
PTGFR | -0.644 | -0.774 | -0.56 | inactive
SRPK1 | 0.864 | 0.859 | 0.903 | inactive
FXYD4 | 0.19 | -0.675 | 0.131 | inactive
TTC1 | 0.119 | 0.5 | 0.413 | inactive
DPH6 | -0.0986 | 0.168 | 0.429 | inactive
ZNF354A | -0.135 | -0.19 | -0.787 | inactive
EIF4A2P4 | -0.87 | -0.948 | -1.02 | inactive
IZUMO2 | 0.476 | 0.546 | 0.898 | inactive
GFRAL | -1.71 | -1.44 | -1.69 | inactive
MB21D2 | 0.61 | 0.734 | -0.508 | inactive
HAVCR1 | 0.0756 | -0.03 | 0.805 | inactive
RGS7 | -1.56 | -1.52 | -1.46 | inactive
CLCN7 | 0.642 | 0.149 | 1.57 | inactive
H4C7 | -0.0309 | 0.883 | -0.766 | inactive
ADORA2B | 0.0326 | -1.08 | -0.653 | inactive
ANKRD50 | -0.576 | -0.3 | 0.331 | inactive
LOC283034 (retired record) | 1.53 | 1.44 | 1.6 | inactive
POLR2C | -0.992 | -1.34 | -1.39 | inactive
LOC442030 (retired record) | 1.57 | 0.368 | 0.231 | inactive
SLC26A1 | 0.657 | 0.481 | 0.791 | inactive
UNC5A | 0.393 | 0.401 | 0.2 | inactive
ANKIB1 | 2.03 | 0.36 | 0.33 | inactive
MYCBP2 | -1.06 | 0.171 | 1.62 | inactive
CCR8 | -0.738 | 0.244 | -0.757 | inactive
VBP1 | -0.688 | -0.464 | -0.533 | inactive
GEMIN8 | -1.16 | 0.281 | -0.928 | inactive
COPZ2 | 2.13 | 2.04 | 1.32 | active
LOC442174 (retired record) | -0.0106 | 0.0489 | 0.246 | inactive
AGER | -2.29 | -2.35 | -2.29 | active
ATP6V0E2-AS1 | -0.0113 | 0.669 | 0.459 | inactive
C20orf144 | 1.09 | -0.421 | 0.138 | inactive
ADAMTS4 | 0.0674 | 0.179 | 0.163 | inactive
ZNF663P | -0.0301 | -0.436 | -0.48 | inactive
LRG1 | 1.62 | 2.56 | 1.2 | inactive
ZNF227 | 1.2 | 1.83 | 1.61 | inactive
IRGM | 1.25 | 0.687 | 1.55 | inactive
POLR3H | 0.914 | 2.35 | 2.75 | active
DOCK4 | 0.453 | 0.345 | -0.983 | inactive
CNTNAP1 | 0.703 | 1.03 | 0.748 | inactive
ITGAX | 2.44 | 0.79 | 0.943 | inactive
CDC14B | 0.62 | 0.71 | 0.844 | inactive
HNRNPA1P20 | 0.0111 | 0.0565 | -0.00605 | inactive
ISG20 | -0.723 | -0.773 | -0.355 | inactive
FKBP14 | 0.101 | 0.506 | 0.758 | inactive
EXT1 | -3.1 | -1.97 | -1.98 | active

Ordered by “robust z-score, replicate 3” (highest first): 5 of the entries above.
target | robust z-score, replicate 1 | robust z-score, replicate 2 | robust z-score, replicate 3 | Call
ITGAX | 2.44 | 0.79 | 0.943 | inactive
CDC14B | 0.62 | 0.71 | 0.844 | inactive
FKBP14 | 0.101 | 0.506 | 0.758 | inactive
HNRNPA1P20 | 0.0111 | 0.0565 | -0.00605 | inactive
ISG20 | -0.723 | -0.773 | -0.355 | inactive
